No constants are given. Whether binding was seen depends on the method and setting. In cells and extracts the contact can be indirect. Some binding calls cover weakened binding; strength is not graded here. Sequences can lack the tags named with a protein.

Here are results for 1 molecule from paper PMC4820689.

For the experiment, the target named is T1, pmut3 KcsA (Q58A, T61S, R64D triple mutant) (Streptomyces lividans) (UniProt P0A334).
T1 sequence: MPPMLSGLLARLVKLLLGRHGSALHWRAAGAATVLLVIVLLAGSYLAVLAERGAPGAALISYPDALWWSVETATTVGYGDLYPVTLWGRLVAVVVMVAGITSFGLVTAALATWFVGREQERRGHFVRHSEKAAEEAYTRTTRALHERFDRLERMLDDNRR
Put plainly: pull-down; pmut3 KcsA used as the immobilised channel in the toxin pull-down from venom; data not shown; only the target purified.

B1: Tx7335 (peptide, UniProt C0HJT4 1-63)
chain: LECHRRGSFISDGKITCSAKKTFCCKMYEKIFGIYWYGCAKTYTEKNTWNVYSKCCTTNLCNT
Consider B1, for which the binding entry is recorded as “binds”.
